According to patent US12295940B2, “Viral inhibitors, the synthesis thereof, and intermediates thereto” (Takeda Pharmaceutical Company Limited, priority 2022, dated 2025):
Where a name gives a salt, the structure may show the parent alone. Some entries share one result that the patent states for a list of compounds.

Assay: Stability data of process systems (Example 3-23)
Type: physicochemical
Conditions: Compound 3 HCl in MeOH/TBME at 40 °C
Experimental: The following stability data was generated and referenced in one or more of the prior examples. Stability of the following systems were studied and found to be stable for at least 7 days: Stability of Compound 3 HCl in MeOH/TBME at 40° C.; Stability of reaction mixture at 40° C. (amount of maribavir); Stability of biphasic mixture at 40° C. (before extraction); Stability of biphasic mixture at 40° C. (during last NaCl washing); Stability of reaction mixture after final distillation step at Stability of biphasic mixture at 75° C.; Stability of reaction mixture after final distillation step at 90° C.; Stability of crystallization mixture after dosage of 2nd portion of toluene at reflux; Stability of crystallization at 20° C.; Stability of mixture during slurry wash at 20-25° C.; Stability of maribavir in the mother liquor at 20-25° C.; Stability of wet cake at 70° C.; and Stability of dry cake at 70° C.

Question: For `CC(=O)OC[C@@H]1O[C@H](n2c(NC(C)C)nc3cc(Cl)c(Cl)cc32)[C@@H](OC(C)=O)[C@H]1OC(C)=O` [Compound 3 HCl, (2S,3S,4S,5S)-2-(acetoxymethyl)-5-(5,6-dichloro-2-(isopropylamino)-1H-benzo[d]imidazol-1-yl)tetrahydrofuran-3,4-diyl diacetate hydrochloride], which “Stability (time found stable)” value is on record?
Answer: at least 7 days
